Laboratory results taken from patent US20050164234A1, “Methods of using mammalian RNase H and compositions thereof” (priority 1997, published 2005).

Assays:
[1] = target: RNase H1[K226,227,231,236A] K226A,K227A,K231A,K236A (Homo sapiens) (UniProt O60930); assay: competition with a labelled probe; details: competitively inhibits wild-type RNase H1; rate about 60% slower; purified recombinant protein; protein details: His6; label: 5'-32P on RNA; DNA:RNA hybrid
[2] = target: RNase H1[D145N] (Homo sapiens) (UniProt O60930); assay: competition with a labelled probe; details: competitively inhibits wild-type RNase H1; wild-type rate alone 6-fold faster; 10-fold mutant excess; purified recombinant protein; protein details: His6; label: 5'-32P on RNA; DNA:RNA hybrid
[3] = target: T1, Human RNase H2 (immunoprecipitated from HeLa) (Homo sapiens) (UniProt O75792); assay: enzyme reaction in vitro; details: 37 C, protein in an extract, label: 5'-32P on RNA, DNA:RNA hybrid
T1 sequence (limits assumed): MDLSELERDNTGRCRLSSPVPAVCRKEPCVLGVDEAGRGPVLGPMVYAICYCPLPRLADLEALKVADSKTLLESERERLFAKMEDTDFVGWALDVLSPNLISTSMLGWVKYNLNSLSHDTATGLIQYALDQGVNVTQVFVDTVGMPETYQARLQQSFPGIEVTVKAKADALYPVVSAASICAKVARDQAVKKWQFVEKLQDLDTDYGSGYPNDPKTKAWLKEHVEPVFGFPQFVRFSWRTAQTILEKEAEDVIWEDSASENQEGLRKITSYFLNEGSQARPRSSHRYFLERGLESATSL

[4] = target: T2, Human RNase H1 (wild type) (Homo sapiens) (UniProt O60930); assay: enzyme reaction in vitro; details: initial rate V0; 17-nt heteroduplex, 1 mM MgCl2, 37 C; cleaves 8-12 nt from 5'-RNA terminus; purified recombinant protein; label: 5'-32P on RNA; DNA:RNA hybrid
T2 sequence: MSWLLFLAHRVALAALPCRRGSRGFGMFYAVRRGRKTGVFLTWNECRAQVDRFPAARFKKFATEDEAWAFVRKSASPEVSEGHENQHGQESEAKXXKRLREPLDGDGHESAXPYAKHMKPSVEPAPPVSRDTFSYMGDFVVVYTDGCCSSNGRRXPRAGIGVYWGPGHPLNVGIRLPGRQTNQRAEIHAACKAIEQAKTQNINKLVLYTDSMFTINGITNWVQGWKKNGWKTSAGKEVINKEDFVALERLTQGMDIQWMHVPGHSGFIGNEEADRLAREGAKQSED

[5] = target: RNase H1[K226,227A] K226A,K227A (Homo sapiens) (UniProt O60930); assay: enzyme reaction in vitro; details: initial rate V0; 1 mM MgCl2, 37 C; purified recombinant protein; protein details: His6; label: 5'-32P on RNA; DNA:RNA hybrid
[6] = target: RNase H1[ΔI] (Homo sapiens) (UniProt O60930); assay: enzyme reaction in vitro; details: initial rate V0; 1 mM MgCl2, 37 C; cleaves 7-13 nt from 5'-RNA terminus; purified recombinant protein; protein details: His6; label: 5'-32P on RNA; DNA:RNA hybrid
[7] = target: T3, RNase H1[ΔI-II] (Homo sapiens) (UniProt O60930); assay: enzyme reaction in vitro; details: initial rate V0; 1 mM MgCl2, 37 C; cleaves 7-13 nt from 5'-RNA terminus; purified recombinant protein; protein details: His6; label: 5'-32P on RNA; DNA:RNA hybrid
T3 sequence: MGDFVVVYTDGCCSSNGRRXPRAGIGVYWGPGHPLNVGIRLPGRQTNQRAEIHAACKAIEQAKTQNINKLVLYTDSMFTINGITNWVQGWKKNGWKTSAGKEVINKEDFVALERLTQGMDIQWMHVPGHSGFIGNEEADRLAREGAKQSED

[8] = target: Human RNase H1 (immunoprecipitated from HeLa) (Homo sapiens) (UniProt O60930); assay: enzyme reaction in vitro; details: 37 C, protein in an extract, label: 5'-32P on RNA, DNA:RNA hybrid
[9] = target: T4, E. coli RNase H1 (Escherichia coli) (UniProt P0A7Y4); assay: competition with a labelled probe; details: 2'-F on the strand complementary to the DNA; CITED Lima and Crooke 1997 Biochemistry 36, 390-398; purified recombinant protein
T4 sequence (limits assumed): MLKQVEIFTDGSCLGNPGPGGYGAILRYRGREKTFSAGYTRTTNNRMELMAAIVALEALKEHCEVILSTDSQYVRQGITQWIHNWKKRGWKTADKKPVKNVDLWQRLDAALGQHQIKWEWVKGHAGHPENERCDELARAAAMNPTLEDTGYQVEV

GGGCGCCGUCGGUGUGG / CCACACCGACGGCGCCC [17-mer Ras RNA/DNA heteroduplex (ISIS 3058/ISIS 4701)]
binding result [1]: binds
binding result [2]: binds
activity on this sequence ([3]; TCA and gel assay, 50 nM duplex, cleavage pattern differs from RNase H1): active
activity on this sequence [4]: active
activity on this sequence [5]: less active
activity on this sequence [6]: active
activity on this sequence [7]: active
activity on this sequence ([8]; TCA and gel assay, 50 nM duplex, pattern identical to purified RNase H1): active

CCACACCGACGGCGCCC / GGGCGCCGUCGGUGUGG [non-cleavable DNA/2'-fluoro heteroduplex]
Kd [9]: 1600 nM

ACUGUGCGUGGAAAGCGUAG / CTACGCTTTCCACGCACAGT [20-mer Bcl-x RNA/DNA heteroduplex (ISIS 183349/ISIS 17619)]
activity on this sequence ([3]; denaturing gel, pattern differs from RNase H1): active
activity on this sequence ([8]; denaturing gel): active

For some assays here: Where a protein sequence is shown, tags need not be part of it. For some assays here: Construct, isoform or probe ends are uncertain for at least one entry. For some assays here: A weaker result is weaker than the reference pair of the same experiment.
